Results reported in patent US11360104.

System: T1, PinR (AIY20223.2, TetR family) (Pimelobacter simplex)
T1 sequence: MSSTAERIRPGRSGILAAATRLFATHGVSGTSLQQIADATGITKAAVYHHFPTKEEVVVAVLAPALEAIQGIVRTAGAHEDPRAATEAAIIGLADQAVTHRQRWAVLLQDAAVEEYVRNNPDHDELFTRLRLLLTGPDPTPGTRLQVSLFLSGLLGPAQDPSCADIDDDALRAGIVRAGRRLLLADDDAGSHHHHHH
Assay: binding assay
Details: FRET; scrambled control; QD/TF/DNA 1/4/18; purified recombinant protein; label: Cy5 at 5' and 3'

Does “TGTGCGTGTCCCTCGCTCGGTTTCAGA / TCGTGAAACCGAGCGAGGGACACGCACA [scrambled (scbd)]” bind?
Result: no binding

For at least one entry, the source does not settle the construct or the ends of the probe. Negatives hold for the conditions tested. Tags and fusion partners may be left off the protein sequences shown.
